Measurements published in patent US20140127212A1.

Legend:
Experiment in all cases: condition: competitor series starting at approximately 1000:1 over biotinylated human IgE; DELFIA epitope competition; no inhibition of biotinylated IgE binding to immobilised antibody
[1] = molecular target: purified human IgA (Calbiochem) (human)
[2] = molecular target: purified human IgD (Calbiochem) (human)
[3] = molecular target: purified human IgG (Calbiochem) (human)
[4] = molecular target: purified human IgM (Calbiochem) (human)

Measured: binding

B1: Antibody 1 IgG (antibody, V domains shown)
VH: QVQLVQSGAEVKKPGATVKLSCKVYGYIFTDYNIYWVRQAPGKGLEWMGLIDPDNGETFYAEKFQGRATMTADTSSDRAYMELTSLTFEDTATYYCATVLHRRLKGGYDYWGRGTLVTVSS
VL: QSVLTQPPSVSGAPGQRVTISCTGSSSNIGAGYDVHWYQQLPGTAPKLLIYDNFNRPSGVPDRFSGSKSGTSASLAIIGLQTEDEADYYCQSYDSSLSGSLFGTGTKLTVL
no binding: all assays above

No constants are given. Whether binding was seen depends on the method and setting.
